Assay results reported in article PMC10685313 (2023).

B1: progesterone receptor membrane component 1, Myc-tagged wild type (PGRMC1-myc) [not stated] / two pore channel TPC1, GFP-tagged (TPC1-GFP) [human] (parent complex)
chain 1: MAAEDVVATGADPSDLESGGLLHEIFTSPLNLLLLGLCIFLLYKIVRGDQPAASGDSDDDEPPPLPRLKRRDFTPAELRRFDGVQDPRILMAINGKVFDVTKGRKFYGPEGPYGVFAGRDASRGLATFCLDKEALKDEYDDLSDLTAAQQETLSDWESQFTFKYHHVGKLLKEGEEPTVYSDEEEPKDESARKND
chain 2: not shown

Variants of: B1
Assay: co-immunoprecipitation (TPC1-GFP IP, anti-myc Western blot densitometry); U2OS cells co-expressing PGRMC1-myc constructs and TPC1-GFP; n = 2; parent: 100; read off a plot

| Variant | percent of parent [% ctrl] |
| --- | --- |
| chain 1 S143P | ~98 |
| chain 1 V167P | ~110 |
| chain 1 Q159P | ~5 |
| chain 1 Q149P | ~18 |
